Data published in article PMC6797804, “Histone H3K23-specific acetylation by MORF is coupled to H3K14 acylation” (Nature Communications, 2019).
No constants are given. Whether binding was seen depends on the method and setting. In cells and extracts the contact can be indirect. Some entries that bind do so weakly or less than the wild type.

By UniProt entry, the sequences of proteins in these tests, tags left out.
UniProt Q8WYB5: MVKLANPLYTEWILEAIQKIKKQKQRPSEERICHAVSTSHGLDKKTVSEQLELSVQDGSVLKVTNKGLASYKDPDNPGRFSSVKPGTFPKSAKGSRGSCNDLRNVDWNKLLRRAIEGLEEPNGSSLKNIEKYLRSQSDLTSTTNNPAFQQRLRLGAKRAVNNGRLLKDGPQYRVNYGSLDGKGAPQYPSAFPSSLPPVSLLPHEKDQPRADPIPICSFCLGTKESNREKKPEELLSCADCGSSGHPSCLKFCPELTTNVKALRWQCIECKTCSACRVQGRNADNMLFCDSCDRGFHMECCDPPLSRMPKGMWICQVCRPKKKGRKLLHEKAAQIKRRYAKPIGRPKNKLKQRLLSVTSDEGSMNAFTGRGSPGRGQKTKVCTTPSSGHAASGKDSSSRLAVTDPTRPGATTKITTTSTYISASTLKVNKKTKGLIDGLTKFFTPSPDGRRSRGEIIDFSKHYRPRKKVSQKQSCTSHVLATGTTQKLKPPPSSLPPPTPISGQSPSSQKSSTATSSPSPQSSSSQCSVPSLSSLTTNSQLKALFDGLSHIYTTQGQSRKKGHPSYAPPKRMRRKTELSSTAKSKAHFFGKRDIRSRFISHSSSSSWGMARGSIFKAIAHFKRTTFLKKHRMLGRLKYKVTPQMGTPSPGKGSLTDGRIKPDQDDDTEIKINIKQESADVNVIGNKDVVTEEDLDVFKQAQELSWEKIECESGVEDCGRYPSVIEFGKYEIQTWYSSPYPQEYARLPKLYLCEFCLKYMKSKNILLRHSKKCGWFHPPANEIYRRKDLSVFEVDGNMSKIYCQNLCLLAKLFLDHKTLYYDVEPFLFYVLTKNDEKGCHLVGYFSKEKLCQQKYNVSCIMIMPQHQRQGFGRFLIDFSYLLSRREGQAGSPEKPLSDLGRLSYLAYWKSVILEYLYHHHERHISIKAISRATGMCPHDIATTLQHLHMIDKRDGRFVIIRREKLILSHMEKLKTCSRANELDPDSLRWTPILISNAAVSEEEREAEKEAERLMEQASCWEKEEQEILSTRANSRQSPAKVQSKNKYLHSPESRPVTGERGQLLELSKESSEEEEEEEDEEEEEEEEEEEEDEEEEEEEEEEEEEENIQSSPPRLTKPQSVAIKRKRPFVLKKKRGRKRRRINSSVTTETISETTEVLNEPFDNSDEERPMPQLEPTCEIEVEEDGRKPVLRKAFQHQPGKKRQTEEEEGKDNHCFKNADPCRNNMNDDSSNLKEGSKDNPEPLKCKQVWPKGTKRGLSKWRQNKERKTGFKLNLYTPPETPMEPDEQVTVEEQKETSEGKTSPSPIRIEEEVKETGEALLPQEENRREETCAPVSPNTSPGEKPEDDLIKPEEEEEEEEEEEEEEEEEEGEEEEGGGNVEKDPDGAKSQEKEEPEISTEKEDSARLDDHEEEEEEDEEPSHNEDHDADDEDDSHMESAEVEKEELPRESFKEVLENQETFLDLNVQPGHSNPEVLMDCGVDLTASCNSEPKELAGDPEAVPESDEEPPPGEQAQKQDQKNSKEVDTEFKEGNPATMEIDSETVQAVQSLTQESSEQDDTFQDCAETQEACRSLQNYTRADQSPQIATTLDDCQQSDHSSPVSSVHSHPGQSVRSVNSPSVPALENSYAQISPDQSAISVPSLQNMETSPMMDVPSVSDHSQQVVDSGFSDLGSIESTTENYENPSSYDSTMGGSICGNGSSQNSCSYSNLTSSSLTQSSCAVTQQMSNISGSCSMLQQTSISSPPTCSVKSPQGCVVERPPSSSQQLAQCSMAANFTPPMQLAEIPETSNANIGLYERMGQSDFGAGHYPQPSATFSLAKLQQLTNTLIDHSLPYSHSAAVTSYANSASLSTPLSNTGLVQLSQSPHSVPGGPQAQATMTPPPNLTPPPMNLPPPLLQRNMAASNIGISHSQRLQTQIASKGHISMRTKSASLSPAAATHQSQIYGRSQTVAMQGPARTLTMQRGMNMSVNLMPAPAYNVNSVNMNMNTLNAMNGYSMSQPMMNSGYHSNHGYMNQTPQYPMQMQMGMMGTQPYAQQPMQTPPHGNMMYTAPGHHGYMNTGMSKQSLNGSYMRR
UniProt P55201: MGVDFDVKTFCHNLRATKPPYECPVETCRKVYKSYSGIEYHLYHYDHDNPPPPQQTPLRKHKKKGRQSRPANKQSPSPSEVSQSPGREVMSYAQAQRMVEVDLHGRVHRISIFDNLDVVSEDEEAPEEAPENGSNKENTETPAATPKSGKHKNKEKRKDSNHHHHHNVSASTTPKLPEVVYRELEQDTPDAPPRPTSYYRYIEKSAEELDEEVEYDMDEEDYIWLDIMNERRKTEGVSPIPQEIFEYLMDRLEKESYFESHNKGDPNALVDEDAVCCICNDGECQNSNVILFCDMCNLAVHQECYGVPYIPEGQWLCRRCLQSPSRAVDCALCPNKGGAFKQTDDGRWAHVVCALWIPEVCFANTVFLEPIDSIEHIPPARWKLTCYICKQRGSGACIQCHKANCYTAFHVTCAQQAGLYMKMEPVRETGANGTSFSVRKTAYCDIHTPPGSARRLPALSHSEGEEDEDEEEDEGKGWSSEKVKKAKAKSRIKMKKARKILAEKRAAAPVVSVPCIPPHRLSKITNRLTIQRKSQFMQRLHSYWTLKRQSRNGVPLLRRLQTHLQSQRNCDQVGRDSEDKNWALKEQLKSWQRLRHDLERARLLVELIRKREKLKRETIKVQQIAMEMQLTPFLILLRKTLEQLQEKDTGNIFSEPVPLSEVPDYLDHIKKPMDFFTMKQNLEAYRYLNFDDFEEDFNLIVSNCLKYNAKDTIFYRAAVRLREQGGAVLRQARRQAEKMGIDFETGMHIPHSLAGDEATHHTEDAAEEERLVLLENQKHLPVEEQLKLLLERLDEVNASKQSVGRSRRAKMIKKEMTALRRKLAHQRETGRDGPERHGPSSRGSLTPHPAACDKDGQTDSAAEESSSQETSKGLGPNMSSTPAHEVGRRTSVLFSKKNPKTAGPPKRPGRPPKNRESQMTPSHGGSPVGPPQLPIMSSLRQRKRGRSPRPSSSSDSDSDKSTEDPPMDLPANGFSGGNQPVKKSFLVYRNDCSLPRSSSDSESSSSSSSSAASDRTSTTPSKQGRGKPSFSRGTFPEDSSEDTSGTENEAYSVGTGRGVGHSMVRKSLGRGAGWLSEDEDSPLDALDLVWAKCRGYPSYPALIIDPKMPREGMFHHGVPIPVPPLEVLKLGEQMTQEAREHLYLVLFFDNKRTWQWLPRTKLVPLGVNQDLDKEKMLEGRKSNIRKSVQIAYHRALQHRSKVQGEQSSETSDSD
UniProt Q9UNL4: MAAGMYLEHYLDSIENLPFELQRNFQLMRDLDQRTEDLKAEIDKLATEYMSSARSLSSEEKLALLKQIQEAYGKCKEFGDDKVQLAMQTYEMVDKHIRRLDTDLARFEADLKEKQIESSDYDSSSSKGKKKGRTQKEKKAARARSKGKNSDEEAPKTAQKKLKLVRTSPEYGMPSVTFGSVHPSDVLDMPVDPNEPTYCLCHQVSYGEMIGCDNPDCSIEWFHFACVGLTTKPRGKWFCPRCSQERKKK
UniProt Q8WYH8: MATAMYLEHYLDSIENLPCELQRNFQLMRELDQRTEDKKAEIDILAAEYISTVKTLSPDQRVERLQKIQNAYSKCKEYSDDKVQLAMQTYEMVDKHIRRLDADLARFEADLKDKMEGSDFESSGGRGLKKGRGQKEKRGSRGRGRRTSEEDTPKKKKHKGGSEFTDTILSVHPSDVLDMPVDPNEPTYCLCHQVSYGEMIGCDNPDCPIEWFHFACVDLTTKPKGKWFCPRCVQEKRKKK

Molecular target: 3xFLAG-2xStrep-tagged MORF (full length), expressed from the AAVS1 locus in K562 cells (human) (UniProt Q8WYB5)
Assay: co-IP; tandem affinity purification (FLAG, then Strep) of 3xFLAG-2xStrep MORF from K562 nuclear extracts; Western blots with antibodies against MEAF6, ING5 and Brd1 (recognizes BRPF1 and BRPF2)

Row | Substance | binding
1 | BRPF1 (endogenous, K562) (from UniProt P55201 1-1214) | binds
2 | ING4 (endogenous, K562) (from UniProt Q9UNL4 1-249) | binds
3 | ING5 (endogenous, K562) (from UniProt Q8WYH8 1-240) | binds
